Source: paper PMC13128453, “Complexoform-restricted covalent TRMT112 ligands that allosterically agonize METTL5” (Nature Chemical Biology, 2025)

Amino acid sequences for entries named in this document (tags omitted).
UniProt Q9NRN9: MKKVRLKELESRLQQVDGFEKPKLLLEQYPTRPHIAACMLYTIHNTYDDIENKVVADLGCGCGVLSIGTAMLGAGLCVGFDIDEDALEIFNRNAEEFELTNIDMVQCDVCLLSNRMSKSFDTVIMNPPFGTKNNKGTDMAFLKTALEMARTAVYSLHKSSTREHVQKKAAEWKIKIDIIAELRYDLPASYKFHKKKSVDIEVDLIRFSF

T1: WT-TRMT112–FLAG (human) (UniProt Q9UI30)
T1 sequence: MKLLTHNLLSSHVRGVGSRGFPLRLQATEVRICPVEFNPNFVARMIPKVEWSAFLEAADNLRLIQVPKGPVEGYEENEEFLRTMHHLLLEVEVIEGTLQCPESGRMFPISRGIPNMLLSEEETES


What was measured:
[1] = biological target: T1, WT-TRMT112–FLAG (human); assay: affinity purification with mass spectrometry; anti-FLAG (anti-DYKDDDDK magnetic agarose) IP of TRMT112–FLAG from lysates of HCT116 TRMT112–FLAG cells (50 mM EPPS pH 7.5, 150 mM NaCl, 1% Nonidet P-40; 2 h, 4 °C), parental HCT116 as control; cells treated with DMSO or FWG-1B (50 µM, 4 h); TMT MS
[2] = biological target: HA–METTL5 (human) (UniProt Q9NRN9); assay: affinity purification with mass spectrometry; anti-HA magnetic beads IP of HA–METTL5 from lysates of HCT116 TRMT112–FLAG:HA–METTL5 cells (50 mM EPPS pH 7.5, 150 mM NaCl, 1% Nonidet P-40; 2 h, 4 °C); cells treated with DMSO or FWG-33B (5 µM, 4 h); TRMT112 tryptic peptides quantified by TMT MS

Row | Molecule | binding [1] | binding [2]
1 | METTL5 (endogenous) (from UniProt Q9NRN9 1-209) (enzyme) | binds | 
2 | TRMT11 (enzyme, UniProt Q7Z4G4 1-463) MALSCTLNRYLLLMAQEHLEFRLPEIKSLLLLFGGQFASSQETYGKSPFWILSIPSEDIARNLMKRTVCAKSIFELWGHGQSPEELYSSLKNYPVEKMVPFLHSDSTYKIKIHTFNKTLTQEEKIKRIDALEFLPFEGKVNLKKPQHVFSVLEDYGLDPNCIPENPHNIYFGRWIADGQRELIESYSVKKRHFIGNTSMDAGLSFIMANHGKVKENDIVFDPFVGTGGLLIACAHFGAYVYGTDIDYNTVHGLGKATRKNQKWRGPDENIRANLRQYGLEKYYLDVLVSDASKPSWRKGTYFDAIITDPPYGIRESTRRTGSQKEIPKGIEKWEKCPESHVPVSLSYHLSDMFLDLLNFAAETLVLGGRLVYWLPVYTPEYTEEMVPWHPCLELVSNCEQKLSSHTSRRLITMEKVKKFENRDQYSHLLSDHFLPYQGHNSFREKYFSGVTKRIAKEEKSTQE | binds | 
3 | WT-TRMT112–FLAG (protein, UniProt Q9UI30 1-125) MKLLTHNLLSSHVRGVGSRGFPLRLQATEVRICPVEFNPNFVARMIPKVEWSAFLEAADNLRLIQVPKGPVEGYEENEEFLRTMHHLLLEVEVIEGTLQCPESGRMFPISRGIPNMLLSEEETES |  | binds

Second part, the molecule after the results:

Row | binding [1] | binding [2] | Molecule
4 | binds |  | THUMPD3 (enzyme, UniProt Q9BV44 1-507) MCDIEEATNQLLDVNLHENQKSVQVTESDLGSESELLVTIGATVPTGFEQTAADEVREKLGSSCKISRDRGKIYFVISVESLAQVHCLRSVDNLFVVVQEFQDYQFKQTKEEVLKDFEDLAGKLPWSNPLKVWKINASFKKKKAKRKKINQNSSKEKINNGQEVKIDQRNVKKEFTSHALDSHILDYYENPAIKEDVSTLIGDDLASCKDETDESSKEETEPQVLKFRVTCNRAGEKHCFTSNEAARDFGGAVQDYFKWKADMTNFDVEVLLNIHDNEVIVGIALTEESLHRRNITHFGPTTLRSTLAYGMLRLCDPLPYDIIVDPMCGTGAIPIEGATEWSDCFHIAGDNNPLAVNRAANNIASLLTKSQIKEGKPSWGLPIDAVQWDICNLPLRTGSVDIIVTDLPFGKRMGSKKRNWNLYPACLREMSRVCTPTTGRAVLLTQDTKCFTKALSGMRHVWRKVDTVWVNVGGLRAAVYVLIRTPQAFVHPSEQDGERGTLWQCKE
5 | binds |  | BUD23 (enzyme, UniProt O43709 1-281) MASRGRRPEHGGPPELFYDETEARKYVRNSRMIDIQTRMAGRALELLYLPENKPCYLLDIGCGTGLSGSYLSDEGHYWVGLDISPAMLDEAVDREIEGDLLLGDMGQGIPFKPGTFDGCISISAVQWLCNANKKSENPAKRLYCFFASLFSVLVRGSRAVLQLYPENSEQLELITTQATKAGFSGGMVVDYPNSAKAKKFYLCLFSGPSTFIPEGLSENQDEVEPRESVFTNERFPLRMSRRGMVRKSRAWVLEKKERHRRQGREVRPDTQYTGRKRKPRF

No constants are given. Whether binding was seen depends on the method and setting. Binding seen in cells or lysates may run through a third protein. A yes stands for co-enrichment or nearness to the bait. Other partners may have been found. Tags and fused reporters may be left off the sequences shown.
